This is an account of results in US20030219793A1.

Results are given in words; binding and its absence hold for the method and conditions named. Some entries that bind do so weakly or less than the wild type.

Assay [1] deals with T1, Zmax1 cytoplasmic domain bait (entire cytoplasmic domain and a portion of the transmembrane domain) (human) (UniProt O75197).
T1 sequence: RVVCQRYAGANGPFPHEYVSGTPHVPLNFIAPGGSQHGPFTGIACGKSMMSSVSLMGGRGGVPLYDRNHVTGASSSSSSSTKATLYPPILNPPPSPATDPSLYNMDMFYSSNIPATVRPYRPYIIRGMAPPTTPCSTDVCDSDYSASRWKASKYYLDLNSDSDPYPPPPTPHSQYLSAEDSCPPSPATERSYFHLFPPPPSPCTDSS
Nature of the assay: yeast two-hybrid screens.

For assay [2], the target named is T1, Zmax1 cytoplasmic domain bait (entire cytoplasmic domain and a portion of the transmembrane domain) (human). Kind of assay: yeast two-hybrid screen, Zmax1 cytoplasmic domain as bait; listed in Table 6 (Yeast Two Hybrid Results).

B1: PINCH-like protein (novel) (protein, not shown: large carriers)
chain: STGSEFPLCTKASPCSAARAGGRALGWRLQQQRETRGNPGNPGLGVAATMTGSNMSDALANAVCQRCQARFSPAERIVNSNGELYHEHCFVCAQCFRPFPEGLFYEFEGRKYCEHDFQMLFAPCCGSCGEFIIGRVIKAMNNNWHPGCFRCELCDVELADLGFVKNAGRHLCRPCHNREKAKGLGKYICQRCHLVIDEQPLMFRSDAYHPDHFNCTHCGKELTAEARELKGELYCLPCHDKMGVPICGACRRPIEGRVVNALGKQWHVEHFVCAKCEKPFLGHRHYEKKGLAYCEL
Turning to B1, the binding entry in assay [1] and in assay [2] was “binds” in each case.
